Screening data, single-dose tests

Amino acid sequences for entries named in this document (tags omitted). Residues count along the entry.
UniProt P9WPC5, whole entry: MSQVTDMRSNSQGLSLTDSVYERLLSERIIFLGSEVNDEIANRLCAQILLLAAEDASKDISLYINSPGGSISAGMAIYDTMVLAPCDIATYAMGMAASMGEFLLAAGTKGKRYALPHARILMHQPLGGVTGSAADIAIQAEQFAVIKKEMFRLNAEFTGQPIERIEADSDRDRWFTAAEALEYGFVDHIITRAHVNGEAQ
UniProt P9WPC3, whole entry partner: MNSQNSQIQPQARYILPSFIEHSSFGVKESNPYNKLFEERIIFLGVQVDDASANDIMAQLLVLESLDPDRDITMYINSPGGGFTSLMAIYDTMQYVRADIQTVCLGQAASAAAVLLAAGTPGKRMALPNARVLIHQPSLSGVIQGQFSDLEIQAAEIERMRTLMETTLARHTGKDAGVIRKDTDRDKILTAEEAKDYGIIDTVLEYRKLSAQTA
UniProt P9WNZ1, whole entry: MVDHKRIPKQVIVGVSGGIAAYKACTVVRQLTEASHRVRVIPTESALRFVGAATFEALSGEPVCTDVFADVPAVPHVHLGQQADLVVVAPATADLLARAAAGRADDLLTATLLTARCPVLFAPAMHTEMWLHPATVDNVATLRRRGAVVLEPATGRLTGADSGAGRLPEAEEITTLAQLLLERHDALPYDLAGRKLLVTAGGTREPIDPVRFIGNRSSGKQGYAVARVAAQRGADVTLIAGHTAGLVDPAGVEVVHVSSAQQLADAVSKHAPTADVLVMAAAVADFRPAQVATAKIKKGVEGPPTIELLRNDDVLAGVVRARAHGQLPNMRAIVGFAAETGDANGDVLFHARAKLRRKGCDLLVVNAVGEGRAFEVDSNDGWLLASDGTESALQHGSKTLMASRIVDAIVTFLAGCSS
UniProt Q8IDJ8, 1-583: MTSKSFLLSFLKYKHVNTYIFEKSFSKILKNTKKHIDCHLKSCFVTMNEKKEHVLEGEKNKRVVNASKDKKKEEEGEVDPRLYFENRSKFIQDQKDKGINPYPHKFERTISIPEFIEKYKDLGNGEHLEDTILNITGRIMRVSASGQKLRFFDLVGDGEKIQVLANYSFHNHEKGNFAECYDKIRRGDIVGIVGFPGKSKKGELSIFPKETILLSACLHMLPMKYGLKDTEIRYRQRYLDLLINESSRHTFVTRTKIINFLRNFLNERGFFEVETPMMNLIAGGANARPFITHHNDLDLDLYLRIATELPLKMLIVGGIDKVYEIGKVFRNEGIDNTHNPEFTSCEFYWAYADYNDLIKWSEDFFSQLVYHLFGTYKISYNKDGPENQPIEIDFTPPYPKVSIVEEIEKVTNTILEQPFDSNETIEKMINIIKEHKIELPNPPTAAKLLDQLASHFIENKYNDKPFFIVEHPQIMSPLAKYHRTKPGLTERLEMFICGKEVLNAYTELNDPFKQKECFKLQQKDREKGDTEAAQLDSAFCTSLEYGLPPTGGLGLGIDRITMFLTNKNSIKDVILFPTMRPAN

Measurements from “University of Dundee, Small-Polar-MMV Screening Library” (2021), ChEMBL document CHEMBL3988442.

The filed quantity is “Percent Effect” (%).
The controls that fix the scale are not given in the record; negative values are as filed.
The compounds are a random part of those screened.
Two or more numbers in one place are separate tests of the same structure; such repeats can differ widely.
A dash means the value is not listed here; it may have been measured.

ClpP1P2: 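ClpP1P2, Mycobacterium tuberculosis (UniProt P9WPC5 and UniProt P9WPC3). Protease assay of ClpP1P2, read by the AMC dye that it sets free. Compounds at 50 µM. Direction is inferred from only a few compounds that gave an IC50; most scored high, so higher reads as stronger inhibition. Most other retested compounds had strongly negative values. About 69,000 compounds were tested under these conditions; 0.015% (about 10) showed 50% or more at least once.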
CoaBC: 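Enzyme assay of CoaBC with a phosphate dye (Biomol Green) read at 650 nm. Target: Coenzyme A biosynthesis protein CoaBC, Mycobacterium tuberculosis (UniProt P9WNZ1). Concentration: 30 µM. Higher reads as stronger inhibition, judged from the few compounds that gave an IC50. Most strong results did not repeat in a second test. Of about 67,000 compounds tested this way, about 40 (0.06%) reached 50% or more in at least one test.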
PfKRS1: 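Enzyme assay of the cytosolic lysyl-tRNA synthetase in 384-well plates, read by luminescence. Target: Lysine-tRNA ligase, Plasmodium falciparum 3D7 (UniProt Q8IDJ8). Tested at 30 µM. Higher reads as stronger inhibition, judged from the few compounds that gave an IC50. Of about 69,000 compounds tested this way, about 49 (0.071%) reached 50% or more in at least one test.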
Leishmania in macrophages: 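Cell assay of Leishmania donovani living inside macrophages; the read-out is not stated. Compounds at 30 µM. The record gives no direction; compounds that gave an IC50 in retests scored well above the rest, so higher reads as stronger inhibition. Of about 69,000 compounds tested this way, about 1,000 (1.5%) reached 50% or more in at least one test.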

structure,ClpP1P2,CoaBC,PfKRS1,Leishmania in macrophages
O=C1N(CC2CC2)C(c2cncs2)NC12CCCC2 (configuration not stated),2.419%,7.233%,3.29%,-3.353%
Clc1cccc(Cl)c1CN(CCCN1CCOCC1)Cc1cccnc1,6.653%,21.45% & -0.5155%,1.876%,-21.42%
[H][C@]12CC[C@](O)(c3cccc(OC)c3)[C@@]1([H])CN(C(=O)c1cn(C)nc1C)C2,-,-,-,5.268%
O=C(O)C(F)(F)F.[H][C@@]12CCN(c3cnccn3)C[C@]1([H])CN(C(=O)CC)C2,-,-,-,8.742%
COCCN1CCC12CCN(C(=O)Cc1cccs1)C2 (configuration not stated),6.08%,4.303%,0.3771%,-
CN(C)C(=O)C1CN(Cc2ccc(C#N)cc2F)c2ccccc2O1 (configuration not stated),8.621%,1.927%,11.09%,30.17%
CN(C)c1cc(CNC(=O)C2COc3ccccc3O2)ccn1 (configuration not stated),5.359%,2.42%,4.898%,19.31%
CC(=O)N1CCn2c(nnc2C2CCCCN2Cc2ccccc2Cl)C1 (configuration not stated),-7.222%,3.832%,0.7445%,-2.123%
CN(C)c1ncc(CNS(=O)(=O)c2cccc3ccccc23)n1C,-12.46%,3.968%,2.717%,14.39%
CC(CNCc1ccc(Cl)cc1)Oc1ccccn1.Cl (configuration not stated),-,-,-,15.96%
c1cc(CN2CCC(Cc3noc(C4CC4)n3)CC2)c2c(c1)OCO2,1.742%,-1.347%,0.7509%,-9.279%
O=C(Nc1cccc(OC(F)F)c1)C1CN(S(=O)(=O)C2CC2)C1,0.07026%,3.171%,4.878%,23.71% & 8.068%
COCC(=O)N1CCC2(CC1)CC(COC)N(Cc1ccccn1)C2.O=C(O)C(F)(F)F (configuration not stated),-,-,-,12.17%
O=C(O)C(F)(F)F.O=C(O)C(F)(F)F.O=C(O)C(F)(F)F.[H][C@@]12CN(Cc3ccoc3)C[C@]1([H])OCCN2CCN1CCCC1,-,-,-,19.24%
O=C(O)C(F)(F)F.O=C(O)C(F)(F)F.[H][C@]12CO[C@@H](CN(C)C)[C@@]1([H])CCN(Cc1ccc(C)o1)C2,-,-,-,32.04%
CCOc1ccc(C(=O)CCC(=O)N(C)Cc2noc(C)n2)cc1C,-13.99%,-0.9709%,2.642%,4.933%
CCOCC1CN(C(=O)CS(C)(=O)=O)Cc2cnn(C)c21.O=C(O)C(F)(F)F (configuration not stated),-,-,-,-11.65%
CCS(=O)(=O)NC1CCc2c(ccc(=O)n2CC2CC2)C1 (configuration not stated),-3.037%,-1.112%,-1.174%,13.88%
CCOCC1CN(C(=O)Cc2ccccn2)Cc2c1cnn2CC (configuration not stated),20.92%,3.337%,0.9981%,-18.66%
CC1(C)CN(C(=O)c2cnc(-c3ccccn3)nc2)CC[C@]1(C)O,-3.407%,3.823%,0.8695%,12.75%
O=C(NCCc1c[nH]cn1)C1CCCN(C2CCOCC2)C1 (configuration not stated),-12.37%,2.539%,9.642%,-4.763%
COCc1ccc(C(=O)NS(=O)(=O)c2ccc3c(c2)CCC(=O)N3)cc1,-8.393%,0%,1.843%,-14.18%
CCS(=O)(=O)N1CCc2nc(C3CCN(C(=O)C4CC4)C3)nc(O)c2C1 (configuration not stated),1.795%,0.7353%,5.74%,19.22%
Cn1ncc2c1C(COCC1CC1)CN(Cc1nccs1)C2 (configuration not stated),-9.434%,1.141%,3.971%,8.638%
O=C(O)C(F)(F)F.O=C(O)C(F)(F)F.[H][C@@]12COC[C@]1(COc1ccccn1)CN(c1ncccn1)C2,-,-,-,6.708%
COC(=O)c1ccc(OCCn2cnc(C#N)n2)cc1,4.343%,0.1274%,4.316%,-8.079%
Cc1cc(N2CCCC2c2nnc3n2CCCCC3)nc(C)n1 (configuration not stated),1.177%,-1.453%,0.08177%,2.888%
O=C(O)C(F)(F)F.[H][C@]12CCN(c3cc(OC)ncn3)[C@@]1([H])C[C@@H](C(=O)N(C)C)O2,-,-,-,1.218%
CS(=O)(=O)c1cccc(OCC(=O)N2CCCC2c2ccccc2Cl)c1 (configuration not stated),-10.71%,-8.015%,-0.07624%,6.935%
Cc1c(CS(C)(=O)=O)cccc1NCCCC1CCCC1,-5.18%,4.43%,4.607%,21.68%
Clc1cccc(N2CCC(NCc3ncc[nH]3)C2)c1 (configuration not stated),-6.285%,-2.539%,6.12%,26.13%
Cc1cc(C)cc(NC(=O)CC2CN(Cc3ccccc3)CCO2)c1 (configuration not stated),-14.96%,0%,9.622%,10.04%
Cc1cc(NC(=O)CCN(CC2CCOC2)C2CC2)no1 (configuration not stated),6.927%,-0.9126%,3.673%,2.445%
O=C(CSc1ccc2c(c1)OCCO2)NS(=O)(=O)c1ccccc1Br,-1.593%,2.564%,3.53%,-2.765%
CCNc1cc2c(nn1)CCN(C(=O)c1cc3cccc(C)c3o1)C2,0.8092%,1.044%,-0.9054%,38.9%
Cc1noc(CNc2ccccc2CC(=O)N(C)C)n1,1.841%,0.2198%,7.308%,19.29%
CNC(=O)C1CNCCN1C(=O)c1ccc(C(F)(F)F)nc1C.Cl (configuration not stated),-,-,-,7.276%
O=C(O)C(F)(F)F.[H][C@@]12CCN(Cc3ccc(F)cc3)C[C@@]1([H])[C@H](C(=O)N1CCCCO1)CCO2,-,-,-,16.03%
CCOc1ccc(CNC(=O)N(C)Cc2ncnn2C)cc1C,-8.372%,2.337%,0.196%,27.93%
CNC(=O)c1cc2c(nc1N(C)C)CCN(c1ncc(C)cn1)CC2.O=C(O)C(F)(F)F,-,-,-,20.26%
CC(c1nc(C(C)(C)C)no1)S(=O)(=O)CC(=O)N(C)C (configuration not stated),-5.887%,0.1267%,-2.319%,3.876%
COC(=O)c1cccc(C(=O)N2CCN(c3cc(C)ccc3C)CC2)n1,-5.16%,-0.361%,2.5%,-24.29%
COCCN1CCCC(C)(c2cc(O)[nH]n2)C1 (configuration not stated),-7.92%,18.93%,8.697%,10.59%
COc1ccc(C(C(=O)O)N2CCC(O)(c3cccnc3)CC2)cc1Cl (configuration not stated),5.51%,1.944%,6.892%,18.27%
O=C(O)C(F)(F)F.O=C(O)C(F)(F)F.O=C(O)C(F)(F)F.O=C1N(c2cccnc2)CCC12CCCN(Cc1cccnc1)C2 (configuration not stated),-,-,-,11.93%
NCCc1cccc(CN2CCN(c3cccc(Cl)c3)C(=O)C2)c1,-16.18%,-30.95%,3.422%,-6.954%
O=S(=O)(NC1CCN(CC(F)(F)F)C1)c1cc(F)cc(F)c1 (configuration not stated),-0.1604%,-0.7299%,0.8823%,9.432%
CC(NC(=O)c1ccc(=O)n(C)c1)c1ccccc1-n1cccn1 (configuration not stated),-8.805%,3.944%,4.738%,8.353%
O=C(O)C(F)(F)F.[H][C@@]12CCN(C3CCOCC3)C[C@]1(C(=O)N1CCOCC1)CCO2,-,-,-,-4.781%
CC1CCCCN1C(=O)c1ccc(=O)[nH]n1 (configuration not stated),10.7%,4.303%,2.129%,-5.288%
O=C1N(Cc2ccccn2)C[C@H]2CN(C3CCOCC3)CCN12,-11.28%,18.27%,1.461%,-
O=C(CCOc1ccccc1)NS(=O)(=O)Cc1ccccc1,-1.367%,0.216%,2.993%,8.588%
CN(C)CCNC(=O)c1ccn(-c2ccc3ccccn23)n1.O=C(O)C(F)(F)F,-,-,-,21.53%
COCC(=O)N1CC[C@@H](O)[C@@H]1Cc1ccccc1,0.2091%,0.3861%,-0.9974%,7.942%
Cc1ccc2c(c1)SCC(=O)N2Cc1noc(C2CC2)n1,16.16%,4.691%,1.56%,20.45%
Cc1nc2ccccc2nc1NCc1cccc(OCC2CCCO2)c1 (configuration not stated),-164.8%,1.937%,-1.273%,0.6574%
Cc1cccc(C(=O)N2CCCC(c3noc(C)n3)C2)n1 (configuration not stated),-18.44%,-20.68%,1.898%,10.24%
COc1ccc(CN(C)CC2(O)CCN(C(=O)c3cccn3C)C2)cc1 (configuration not stated),-2.689%,-0.5556%,-4.869%,-2.061%
Cc1nn(C)c(C)c1-c1ccc(=O)n(C(C)C(=O)NCc2ccco2)n1 (configuration not stated),-7.3%,-25.67%,0.6495%,-8.553%
Cc1ccoc1C(=O)N(CCN(C)C)Cc1ccccn1,-14.97%,0%,-0.5843%,16.35%
COCCNC(=O)[C@H]1CN(Cc2sccc2C)C[C@H]2OCC[C@@H]12,-11.03%,2.589%,2.444%,-
CC(C)NC(=O)Nc1ccc2c(c1)ncn2CC(=O)NCCN(C)C,-2.397%,-4.096%,1.098%,42.22%
[H][C@]12CCN(c3cc(OC)ncn3)[C@@]1([H])C[C@@H](C(=O)NCCOC)O2,-,-,-,-4.353%
O=C(NCC1CC1)C1=NOC2(CCN(Cc3ccc(Cl)c(F)c3)C2)C1 (configuration not stated),-4.805%,0.1965%,1.214%,10.22%

For reference, 8 entries once more:

Result for CC(C)NC(=O)Nc1ccc2c(c1)ncn2CC(=O)NCCN(C)C was ClpP1P2: -2.397%; CoaBC: -4.096%; PfKRS1: 1.098%; Leishmania in macrophages: 42.22%.
Result for O=C(O)C(F)(F)F.O=C(O)C(F)(F)F.[H][C@]12CO[C@@H](CN(C)C)[C@@]1([H])CCN(Cc1ccc(C)o1)C2 was Leishmania in macrophages: 32.04%.
Result for O=C(NCCc1c[nH]cn1)C1CCCN(C2CCOCC2)C1 (configuration not stated) was ClpP1P2: -12.37%; CoaBC: 2.539%; PfKRS1: 9.642%; Leishmania in macrophages: -4.763%.
Result for c1cc(CN2CCC(Cc3noc(C4CC4)n3)CC2)c2c(c1)OCO2 was ClpP1P2: 1.742%; CoaBC: -1.347%; PfKRS1: 0.7509%; Leishmania in macrophages: -9.279%.
Result for O=C(Nc1cccc(OC(F)F)c1)C1CN(S(=O)(=O)C2CC2)C1 was ClpP1P2: 0.07026%; CoaBC: 3.171%; PfKRS1: 4.878%; Leishmania in macrophages: 23.71% & 8.068%.
Result for COCCN1CCC12CCN(C(=O)Cc1cccs1)C2 (configuration not stated) was ClpP1P2: 6.08%; CoaBC: 4.303%; PfKRS1: 0.3771%.
Result for CNC(=O)C1CNCCN1C(=O)c1ccc(C(F)(F)F)nc1C.Cl (configuration not stated) was Leishmania in macrophages: 7.276%.
Result for COCC(=O)N1CC[C@@H](O)[C@@H]1Cc1ccccc1 was ClpP1P2: 0.2091%; CoaBC: 0.3861%; PfKRS1: -0.9974%; Leishmania in macrophages: 7.942%.